From article PMC7696408

B1: TIMM23 (protein, UniProt O14925 1-209)
chain: MEGGGGSGNKTTGGLAGFFGAGGAGYSHADLAGVPLTGMNPLSPYLNVDPRYLVQDTDEFILPTGANKTRGRFELAFFTIGGCCMTGAAFGAMNGLRLGLKETQNMAWSKPRNVQILNMVTRQGALWANTLGSLALLYSAFGVIIEKTRGAEDDLNTVAAGTMTGMLYKCTGGLRGIARGGLTGLTLTSLYALYNNWEHMKGSLLQQSL
B2: TMED10 (protein, UniProt P49755 32-219)
chain: ISFHLPINSRKCLREEIHKDLLVTGAYEISDQSGGAGGLRSHLKITDSAGHILYSKEDATKGKFAFTTEDYDMFEVCFESKGTGRIPDQLVILDMKHGVEAKNYEEIAKVEKLKPLEVELRRLEDLSESIVNDFAYMKKREEEMRDTNESTNTRVLYFSIFSMFCLIGLATWQVFYLRRFFKAKKLIE
B3: VAMP4 (protein, UniProt O75379 1-141)
chain: MPPKFKRHLNDDDVTGSVKSERRNLLEDDSDEEEDFFLRGPSGPRFGPRNDKIKHVQNQVDEVIDVMQENITKVIERGERLDELQDKSESLSDNATAFSNRSKQLRRQMWWRGCKIKAIMALVAAILLLVIIILIVMKYRT
B4: VPS33A (protein, UniProt Q96AX1 1-596)
chain: MAAHLSYGRVNLNVLREAVRRELREFLDKCAGSKAIVWDEYLTGPFGLIAQYSLLKEHEVEKMFTLKGNRLPAADVKNIIFFVRPRLELMDIIAENVLSEDRRGPTRDFHILFVPRRSLLCEQRLKDLGVLGSFIHREEYSLDLIPFDGDLLSMESEGAFKECYLEGDQTSLYHAAKGLMTLQALYGTIPQIFGKGECARQVANMMIRMKREFTGSQNSIFPVFDNLLLLDRNVDLLTPLATQLTYEGLIDEIYGIQNSYVKLPPEKFAPKKQGDGGKDLPTEAKKLQLNSAEELYAEIRDKNFNAVGSVLSKKAKIISAAFEERHNAKTVGEIKQFVSQLPHMQAARGSLANHTSIAELIKDVTTSEDFFDKLTVEQEFMSGIDTDKVNNYIEDCIAQKHSLIKVLRLVCLQSVCNSGLKQKVLDYYKREILQTYGYEHILTLHNLEKAGLLKPQTGGRNNYPTIRKTLRLWMDDVNEQNPTDISYVYSGYAPLSVRLAQLLSRPGWRSIEEVLRILPGPHFEERQPLPTGLQKKRQPGENRVTLIFFLGGVTFAEIAALRFLSQLEDGGTEYVIATTKLMNGTSWIEALMEKPF
B5: YKT6 (protein, UniProt O15498 1-198)
chain: MKLYSLSVLYKGEAKVVLLKAAYDVSSFSFFQRSSVQEFMTFTSQLIVERSSKGTRASVKEQDYLCHVYVRNDSLAGVVIADNEYPSRVAFTLLEKVLDEFSKQVDRIDWPVGSPATIHYPALDGHLSRYQNPREADPMTKVQAELDETKIILHNTMESLLERGEKLDDLVSKSEVLGTQSKAFYKTARKQNSCCAIM
B6: YWHAH (protein, UniProt Q04917 1-246)
chain: MGDREQLLQRARLAEQAERYDDMASAMKAVTELNEPLSNEDRNLLSVAYKNVVGARRSSWRVISSIEQKTMADGNEKKLEKVKAYREKIEKELETVCNDVLSLLDKFLIKNCNDFQYESKVFYLKMKGDYYRYLAEVASGEKKNSVVEASEAAYKEAFEISKEQMQPTHPIRLGLALNFSVFYYEIQNAPEQACLLAKQAFDDAIAELDTLNEDSYKDSTLIMQLLRDNLTLWTSDQQDEEAGEGN
B7: VAT1 (protein, UniProt Q99536 1-393)
chain: MSDEREVAEAATGEDASSPPPKTEAASDPQHPAASEGAAAAAASPPLLRCLVLTGFGGYDKVKLQSRPAAPPAPGPGQLTLRLRACGLNFADLMARQGLYDRLPPLPVTPGMEGAGVVIAVGEGVSDRKAGDRVMVLNRSGMWQEEVTVPSVQTFLIPEAMTFEEAAALLVNYITAYMVLFDFGNLQPGHSVLVHMAAGGVGMAAVQLCRTVENVTVFGTASASKHEALKENGVTHPIDYHTTDYVDEIKKISPKGVDIVMDPLGGSDTAKGYNLLKPMGKVVTYGMANLLTGPKRNLMALARTWWNQFSVTALQLLQANRAVCGFHLGYLDGEVELVSGVVARLLALYNQGHIKPHIDSVWPFEKVADAMKQMQEKKNVGKVLLVPGPEKEN
B8: MOSPD2 (protein, UniProt Q8NHP6 1-518)
chain: MAENHAQNKAKLISETRRRFEAEYVTDKSDKYDARDVERLQQDDNWVESYLSWRHNIVDETLKMLDESFQWRKEISVNDLNESSIPRWLLEIGVIYLHGYDKEGNKLFWIRVKYHVKDQKTILDKKKLIAFWLERYAKRENGKPVTVMFDLSETGINSIDMDFVRFIINCFKVYYPKYLSKIVIFDMPWLMNAAFKIVKTWLGPEAVSLLKFTSKNEVQDYVSVEYLPPHMGGTDPFKYSYPPLVDDDFQTPLCENGPITSEDETSSKEDIESDGKETLETISNEEQTPLLKKINPTESTSKAEENEKVDSKVKAFKKPLSVFKGPLLHISPAEELYFGSTESGEKKTLIVLTNVTKNIVAFKVRTTAPEKYRVKPSNSSCDPGASVDIVVSPHGGLTVSAQDRFLIMAAEMEQSSGTGPAELTQFWKEVPRNKVMEHRLRCHTVESSKPNTLTLKDNAFNMSDKTSEDICLQLSRLLESNRKLEDQVQRCIWFQQLLLSLTMLLLAFVTSFFYLLYS
B9: RASA2 (protein, UniProt Q15283 1-850)
chain: MAAAAPAAAAASSEAPAASATAEPEAGDQDSREVRVLQSLRGKICEAKNLLPYLGPHKMRDCFCTINLDQEEVYRTQVVEKSLSPFFSEEFYFEIPRTFQYLSFYVYDKNVLQRDLRIGKVAIKKEDLCNHSGKETWFSLQPVDSNSEVQGKVHLELKLNELITENGTVCQQLVVHIKACHGLPLINGQSCDPYATVSLVGPSRNDQKKTKVKKKTSNPQFNEIFYFEVTRSSSYTRKSQFQVEEEDIEKLEIRIDLWNNGNLVQDVFLGEIKVPVNVLRTDSSHQAWYLLQPRDNGNKSSKTDDLGSLRLNICYTEDYVLPSEYYGPLKTLLLKSPDVQPISASAAYILSEICRDKNDAVLPLVRLLLHHDKLVPFATAVAELDLKDTQDANTIFRGNSLATRCLDEMMKIVGGHYLKVTLKPILDEICDSSKSCEIDPIKLKEGDNVENNKENLRYYVDKLFNTIVKSSMSCPTVMCDIFYSLRQMATQRFPNDPHVQYSAVSSFVFLRFFAVAVVSPHTFHLRPHHPDAQTIRTLTLISKTIQTLGSWGSLSKSKSSFKETFMCEFFKMFQEEGYIIAVKKFLDEISSTETKESSGTSEPVHLKEGEMYKRAQGRTRIGKKNFKKRWFCLTSRELTYHKQPGSKDAIYTIPVKNILAVEKLEESSFNKKNMFQVIHTEKPLYVQANNCVEANEWIDVLCRVSRCNQNRLSFYHPSVYLNGNWLCCQETGENTLGCKPCTAGVPADIQIDIDEDRETERIYSLFTLSLLKLQKMEEACGTIAVYQGPQKEPDDYSNFVIEDSVTTFKTIQQIKSIIEKLDEPHEKYRKKRSSSAKYGSKENPIVGKAS
B10: RASA3 (protein, UniProt Q14644 1-834)
chain: MAVEDEGLRVFQSVKIKIGEAKNLPSYPGPSKMRDCYCTVNLDQEEVFRTKIVEKSLCPFYGEDFYCEIPRSFRHLSFYIFDRDVFRRDSIIGKVAIQKEDLQKYHNRDTWFQLQHVDADSEVQGKVHLELRLSEVITDTGVVCHKLATRIVECQGLPIVNGQCDPYATVTLAGPFRSEAKKTKVKRKTNNPQFDEVFYFEVTRPCSYSKKSHFDFEEEDVDKLEIRVDLWNASNLKFGDEFLGELRIPLKVLRQSSSYEAWYFLQPRDNGSKSLKPDDLGSLRLNVVYTEDHVFSSDYYSPLRDLLLKSADVEPVSASAAHILGEVCREKQEAAVPLVRLFLHYGRVVPFISAIASAEVKRTQDPNTIFRGNSLASKCIDETMKLAGMHYLHVTLKPAIEEICQSHKPCEIDPVKLKDGENLENNMENLRQYVDRVFHAITESGVSCPTVMCDIFFSLREAAAKRFQDDPDVRYTAVSSFIFLRFFAPAILSPNLFQLTPHHTDPQTSRTLTLISKTVQTLGSLSKSKSASFKESYMATFYEFFNEQKYADAVKNFLDLISSSGRRDPKSVEQPIVLKEGFMIKRAQGRKRFGMKNFKKRWFRLTNHEFTYHKSKGDQPLYSIPIENILAVEKLEEESFKMKNMFQVIQPERALYIQANNCVEAKDWIDILTKVSQCNQKRLTVYHPSAYLSGHWLCCRAPSDSAPGCSPCTGGLPANIQLDIDGDRETERIYSLFNLYMSKLEKMQEACGSKSVYDGPEQEEYSTFVIDDPQETYKTLKQVIAGVGALEQEHAQYKRDKFKKTKYGSQEHPIGDKSFQNYIRQQSETSTHSI
B11: RASAL2 (protein, UniProt Q9UJF2 1-1139)
chain: MQTPEVPAERSPRRRSISGTSTSEKPNSMDTANTSPFKVPGFFSKRLKGSIKRTKSQSKLDRNTSFRLPSLRSTDDRSRGLPKLKESRSHESLLSPCSTVECLDLGRGEPVSVKPLHSSILGQDFCFEVTYLSGSKCFSCNSASERDKWMENLRRTVQPNKDNCRRAENVLRLWIIEAKDLAPKKKYFCELCLDDTLFARTTSKTKADNIFWGEHFEFFSLPPLHSITVHIYKDVEKKKKKDKNNYVGLVNIPTASVTGRQFVEKWYPVSTPTPNKGKTGGPSIRIKSRFQTITILPMEQYKEFAEFVTSNYTMLCSVLEPVISVRNKEELACALVHILQSTGRAKDFLTDLVMSEVDRCGEHDVLIFRENTIATKSIEEYLKLVGQQYLHDALGEFIKALYESDENCEVDPSKCSSSELIDHQSNLKMCCELAFCKIINSYCVFPRELKEVFASWKQQCLNRGKQDISERLISASLFLRFLCPAIMSPSLFNLMQEYPDDRTSRTLTLIAKVIQNLANFAKFGNKEEYMAFMNDFLEHEWGGMKRFLLEISNPDTISNTPGFDGYIDLGRELSVLHSLLWEVVSQLDKGENSFLQATVAKLGPLPRVLADITKSLTNPTPIQQQLRRFTEHNSSPNVSGSLSSGLQKIFEDPTDSDLHKLKSPSQDNTDSYFRGKTLLLVQQASSQSMTYSEKDERESSLPNGRSVSLMDLQDTHAAQVEHASVMLDVPIRLTGSQLSITQVASIKQLRETQSTPQSAPQVRRPLHPALNQPGGLQPLSFQNPVYHLNNPIPAMPKASIDSSLENLSTASSRSQSNSEDFKLSGPSNSSMEDFTKRSTQSEDFSRRHTVPDRHIPLALPRQNSTGQAQIRKVDQGGLGARAKAPPSLPHSASLRSTGSMSVVSAALVAEPVQNGSRSRQQSSSSRESPVPKVRAIQRQQTQQVQSPVDSATMSPVERTAAWVLNNGQYEEDVEETEQNLDEAKHAEKYEQEITKLKERLRVSSRRLEEYERRLLVQEQQMQKLLLEYKARLEDSEERLRRQQEEKDSQMKSIISRLMAVEEELKKDHAEMQAVIDAKQKIIDAQEKRIVSLDSANTRLMSALTQVKERYSMQVRNGISPTNPTKLSITENGEFKNSSC

What follows are binders tested against FlagBirA*-HRAS (human) (UniProt P01112) (assay: proximity labelling; BioID: FlagBirA*-RAS bait in Flp-In T-REx 293 cells, 1 µg/mL tetracycline and 50 µM biotin for 24 h; modified RIPA lysis, Streptavidin Sepharose capture, trypsin, LC-MS/MS; hits at SAINT score ≥ 0.75; labelling radius ~10 nm).
In the case of B1, the binding is reported as “binds”. For B2, the binding was “binds”. In the case of B3, the binding is reported as “binds”. B4 was tested, and the binding was “binds”. With B5 the binding was “binds”. In the case of B6, the binding is reported as “binds”. For B7, the binding was “binds”.

What follows are binders tested against FlagBirA*-KRAS4B (human) (UniProt P01116) in the same assay as above.
For B8, the binding was “binds”. B9 was tested, and the binding was “binds”. In the case of B10, the binding is reported as “binds”. For B11, the binding was “binds”.

No constants are given. Whether binding was seen depends on the method and setting. In cells and extracts the contact can be indirect. A yes stands for co-enrichment or nearness to the bait. Other partners may have been found.
